# Assay results as given in PubChem BioAssay AID1347423 (Functional Genomics Laboratory (NCATS/FGL), 2020).
# The whole screen tested about 52,000 sequences, of which about 210 (0.4%) were called active.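 How the source made its calls: active means gene whose silencing raises cell survival under the drug, median off-target-corrected z-score across its silencing RNAs 2 or more; inactive means the rest.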 This is one part of the list.
# Assay: Resistance to Poly (ADP-Ribose) Polymerase inhibitor: Gene Identification via Genome-wide siRNA Screen
# Conditions: mouse BRCA2 R2336H ES cells, olaparib, CellTiter-Glo viability; stronger effect = higher value
# Summary of the method: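 Mouse BRCA2 R2336H ES cells were reverse-transfected with siRNA (20 nM final), treated at 48 h with 500 nM olaparib, and read by CellTiter-Glo after 72 h. Scores: MAD-based z per siRNA, median per gene, seed off-target correction.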
row,Sequence,z-score
1,GGCAUUAUCUACAUGCACATT against Olfr1287,inactive: 0.061
2,GGUUGAGUACACCAAGAAUTT against Dcx,inactive: 0.0268
3,GGAGCUUGCUCAGACUACUTT against Cct8,inactive: -2.76
4,GGCUGAUGGAAUUGUCUCATT against Rps21,inactive: -3.13
5,GGACCUGACCAAUUGAGCUTT against Rusc1,inactive: -0.323
6,GGUGCAAGCUUUGAGAGGATT against Hsf4,inactive: 0.388
7,GCACGACUACUUCUCAAAUTT against 2610031L17Rik,inactive: -2.9
8,CGGCAGUAAUCCCGUUGACTT against D12Wsu95e,inactive: -0.709
9,CCAAGUCUGAUCUUUUGUATT against 4932416N17Rik,inactive: 0.0137
10,CCAUGAUGAUAAUCUGAAUTT against B930090D16Rik,inactive: 0.709
11,GGACUUACUCUCUCCGUGUTT against A530081L18Rik,inactive: 0.622
12,GGUCUACGUUAUUAUUACCTT against Etsrp71,inactive: 1.02
13,CGGAGUAGCGAUUAUGGUGTT against Art5,inactive: 0.796
14,GGCAAUUCUUAGGACAAGUTT against LOC545471,inactive: 0.654
15,GACCUUCGUUAGCAUUACGTT against Pfn1,inactive: -1.01
16,GCUAGGUAUCUAAGGAUAUTT against A530089I17Rik,inactive: -1.19
17,GCCAGUGGUAAAAUUGUUATT against 1810073G14Rik,inactive: -1.72
18,GCUCAUCUAAGAGGAAUGATT against Jtb,inactive: -1.1
19,CCUAUCAAAUUAAAUGCGCTT against Ly64,inactive: 0.658
20,GGAGCUUUUUUAGUGAUCUTT against D430004I08Rik,inactive: -0.576
21,GCAACAAUAAAUCGUACAGTT against Nupr1,inactive: 0.764
22,GGCUAUGCAAGUGGAGAGCTT against Nfat5,inactive: 0.182
23,GCCUAUGACUACCUCGAGUTT against Rhob,inactive: -0.366
24,GCAAUUCCUCUUUUAGUCCTT against Spag6,inactive: 0.602
25,GGGAUGAAGUGUUCCAUCCTT against 4932418E24Rik,inactive: -0.31
26,GGGUGAGUCCUAAAAAAAATT against 2610205E22Rik,inactive: 0.182

row,Sequence,z-score
1,CCCUGGAAAUUAGAUAACATT against Aldob,inactive: -0.761
2,GGUGGUGGGUCCAAUUUUUTT against Hn1,inactive: 2.32
3,GGAGGUCCAGGAUUUUAUATT against AI326477,inactive: 0.234
4,GGAGAGGAACUCAGAACCATT against Lrmp,inactive: -0.0887
5,GGAUUUUCUAAAAAGACACTT against Slc23a1,inactive: 0.707
6,GGUUAUGUGGAUGAAAGAUTT against Mybpc2,inactive: -1.7
7,GGCUGGUGUAAUCGAAACATT against 2810439F02Rik,inactive: -0.0291
8,CCCUAGACUUGAGAGUUUUTT against Eif2s1,inactive: -1.99
9,GAUCAAUGUGAAGGACAUCTT against Cyp2c50,inactive: 0.471
10,GGAAUUGGCAUGAACGAACTT against Psmd9,inactive: -0.573
11,GGGCUAGAUAUUCCAUGCATT against Olfr585,inactive: -0.0783
12,GGAUGCUCUGAAGAGACAUTT against Olfr493,inactive: 2.28
13,GGAGAUCAACAGGAUUUUGTT against Gna15,inactive: 0.235
14,GGAACACCCGGAUUACAAGTT against Sox1,inactive: -0.762
15,CGGAAUCAUACAUUGGUUCTT against Zfp217,inactive: 0.608
16,CCACAGAACAGCCAUCAUGTT against 4930532L20Rik,inactive: -2.18
17,GGUCUUCUUCGUGUUCAUCTT against Olfr281,inactive: -0.629
18,CCUACGCCAAGCAGUAUGATT against Mcm3,inactive: -2.51
19,GGUUUCCUUUGUCUGUUUUTT against 9530091C08Rik,inactive: 0.446
20,GGAUGAUAGCGCAAAAGAUTT against Tparl,inactive: 0.0118
21,CCUAAUAGUACCAACAAAATT against Nxf2,inactive: 0.732
22,GGAGCUUACCAAGCACUACTT against 6720430O15,inactive: -0.153
23,GGUGCUAAAAAUGAGCCUUTT against 2900073H19Rik,inactive: -1.71
24,CGGACCAUUAUGAGUCAUUTT against 1500011K16Rik,inactive: 0.576
25,GGCUAUCUACCAUUAUAUGTT against Ifit2,inactive: -0.15
26,GGUGCUUUUGCUUAGUGAUTT against Impg2,inactive: 0.123

row,Sequence,z-score
1,GGAGCCCUGUGUCUUGAGUTT against Ccl19,inactive: 0.242
2,GGUCUAUGUACUGUCCUGATT against Otop2,inactive: -1.09
3,GGGAACUGACAAAUGGAAGTT against Samsn1,inactive: 2.56
4,GGAUCUAGGAGCUGAUUAUTT against Nrbf1,inactive: -0.203
5,GGUCGACAGUUAAAAUGAUTT against Bpil2,inactive: -1.23
6,CCCACAAGGUUAAGAUAUATT against Col14a1,inactive: 0.22
7,GGAGAAUGCCCUGAUAUAGTT against 4933439A12Rik,inactive: -0.68
8,GCGAUUUGACAACGAGACCTT against Bmp7,inactive: 1.79
9,GGAGAUGAAGUUCCAAAAGTT against 2310061N23Rik,inactive: -2.38
10,CGUUAGUGACAUGCUCAUGTT against Olfr517,inactive: -0.156
11,GGCUUCUUGUCCAUGCAAATT against C330016O10Rik,inactive: 1.92
12,GGAGAUGAGAAGAUGGGCGTT against Ppp1r8,inactive: -0.341
13,GCGGGCUUUGCUGAGAUUUTT against Hkr3,inactive: -1.36
14,GGUUUUAAUGGUACGAUUUTT against Nr1d2,inactive: 0.451
15,GCGAUGUAAUUACAAACCUTT against LOC378878,inactive: -0.9
16,GGUUACUUGAGUGAAUAAUTT against Asb12,inactive: -1.94
17,GGCUACAAUAGCUGUGGUATT against Magea4,inactive: -1.43
18,GGUUAGGGUGCGUGUUACUTT against 2310033P09Rik,inactive: 0.204
19,GCUGAUCUAACCAACAGCATT against Mark2,inactive: 1.1
20,UGCAAUCCGGAUCAAACGUTT against Cebpb,inactive: -1.09
21,GGAUGAGGAUGUGACCAAGTT against Gpr73l1,inactive: 0.868
22,GGCUUAUACGCUCCAUAUUTT against Gk-rs1,inactive: -0.0164
23,CGCCUCACGAUUUUGAUGATT against Col4a3bp,inactive: -0.639
24,GGGCUGAUUGACAAGUACUTT against Aldrl6,inactive: -1.07
25,GGAAAAAGCUCAAAGGCGATT against Gap43,inactive: -0.387
26,GGACCACAAAGCAGAAAAUTT against B230308G19Rik,inactive: 1.04

# A few values from the list:
# z-score, GGCUACAAUAGCUGUGGUATT against Magea4 is entered as inactive: -1.43
# z-score, CCCACAAGGUUAAGAUAUATT against Col14a1 is entered as inactive: 0.22

# Looked up one by one from the entries so far (2):
row,Sequence,z-score
17,GGCUACAAUAGCUGUGGUATT against Magea4,inactive: -1.43
3,GGAGGUCCAGGAUUUUAUATT against AI326477,inactive: 0.234

# (cont.)

row,Sequence,z-score
1,GGCAGGAAUCUAUAUUAAUTT against Slc17a3,inactive: 0.656
2,GGCUGAAUUUGAUAAAACCTT against Oxr1,inactive: 0.261
3,UGGUUCUACAGCAUUUGUGTT against Olfr954,inactive: -1.07
4,CCCGUCUCCUAAUUUUAACTT against Fgf17,inactive: 0.147
5,GGCUGGAGUAGAAAAGGGATT against Mapbpip,inactive: -0.258
6,CCUCCGAAUUGCCCUUCUGTT against Gtf2h4,inactive: -1.05
7,GGAUGUUCAACCUAAACGATT against Ferd3l,inactive: 1.53
8,GGCCUUGGAGUAGCUUUGATT against 2810417D08Rik,inactive: -2.26
9,CGUGUACCAGCUACCUAAGTT against Phc2,inactive: -0.83
10,GCUAACAGUGGGUUAUUUATT against Tgfb2,inactive: 1.06
11,GGAAGAUUCCAAAACUAGATT against 9430097H08Rik,inactive: -0.0319
12,GGAAAGUCCUUCAUCAGCATT against AU016693,inactive: -0.312
13,GGAUUUUUUUUCCAGAAGCTT against Apln,inactive: 0.394
14,CCUGUUUUCCGACUUGUUGTT against Il4ra,inactive: -0.55
15,GGGAGAAAAUCAAAGUAAUTT against Trim13,inactive: -2.61
16,GGGACAGAUGCUUUUGUACTT against 1700072E05Rik,inactive: 0.757
17,GCUGAACGACAAUAAGGGCTT against Ltbp1,inactive: 0.37
18,GGAAUGAAGUUCACAAUAATT against Ide,inactive: 0.457
19,CGUGAUCGAUGGGAAGAAUTT against 2900041A09Rik,inactive: 0.39
20,GCUACUUGCUCAUACAAAGTT against Rag2,inactive: -0.908
21,GCAAGCAAUAGAGGAACCUTT against Rnf38,inactive: -2.39
22,GGAUCAACAGAGGUUGGCATT against Aldh1a7,inactive: 0.328
23,GCUUGUAACCUAGCAGCUGTT against 6330530A05Rik,inactive: 1.03
24,GGUUGUGUUUUGAUAGGAATT against Slfn5,inactive: -0.268
25,CGGUUAAAAGCACUGCUCGTT against Tmc1,inactive: 1.04
26,AGAAACUGUUGGGUGAAAATT against Olfr329,inactive: 0.47
